Measurements published in patent US6664231B1 (priority 1993, dated 2003).
Strings that start with PEPTIDE1 are HELM notation: dots part the residues, brackets hold end groups and non-standard residues. Square brackets hold non-standard residues; d marks the D form. Phe(4-NH2) = Nc1ccc(C[C@H](N)C(=O)O)cc1; 1Nal = N[C@@H](Cc1cccc2ccccc12)C(=O)O; 2Nal = N[C@@H](Cc1ccc2ccccc2c1)C(=O)O; d1Nal = N[C@H](Cc1cccc2ccccc12)C(=O)O; d2Nal = N[C@H](Cc1ccc2ccccc2c1)C(=O)O; Abu = CC[C@H](N)C(=O)O; Aib = CC(C)(N)C(=O)O; βAla = NCCC(=O)O; Sar = CNCC(=O)O

Experiment: general procedure: Fmoc solid-phase peptide synthesis; polystyrene resin, 1% DVB, Fmoc-Rink amide linker, 0.44 mmoles/gram; DIC/HOBt and HBTU/HOBt/DIEA (double coupling)
Conditions: whole synthesis, scale of the general procedure between 0.1 grams and 5 grams of starting resin

Substance | crude HPLC purity [%] | final HPLC purity [%]
H-KSKVGWLIQLF[1Nal]K[1Nal]-NH2 (SMILES CC[C@H](C)[C@H](NC(=O)[C@H](CC(C)C)NC(=O)[C@H](Cc1c[nH]c2ccccc12)NC(=O)CNC(=O)[C@@H](NC(=O)[C@H](CCCCN)NC(=O)[C@H](CO)NC(=O)[C@@H](N)CCCCN)C(C)C)C(=O)N[C@@H](CCC(N)=O)C(=O)N[C@@H](CC(C)C)C(=O)N[C@@H](Cc1ccccc1)C(=O)N[C@@H](Cc1cccc2ccccc12)C(=O)N[C@@H](CCCCN)C(=O)N[C@@H](Cc1cccc2ccccc12)C(N)=O) | 53 | 
H-PWAIQLFHKK-NH2 |  | 93
H-KSKVG[1Nal]LIQLWHKK-NH2 (SMILES CC[C@H](C)[C@H](NC(=O)[C@H](CC(C)C)NC(=O)[C@H](Cc1cccc2ccccc12)NC(=O)CNC(=O)[C@@H](NC(=O)[C@H](CCCCN)NC(=O)[C@H](CO)NC(=O)[C@@H](N)CCCCN)C(C)C)C(=O)N[C@@H](CCC(N)=O)C(=O)N[C@@H](CC(C)C)C(=O)N[C@@H](Cc1c[nH]c2ccccc12)C(=O)N[C@@H](Cc1c[nH]cn1)C(=O)N[C@@H](CCCCN)C(=O)N[C@@H](CCCCN)C(N)=O) | 50 | 97
CD - 153-161 (CWLIQLFHKK) | 83 | 96
H-KSKVGWLIQWFHKK-NH2 | 57 | 
H-KSKVGWLIFLFHKKKSKVGWLIFLFHKK-NH2 | 34 | 
H-KSKVGKLIQLFHKK-NH2 | 70 | 
H-KSKVGILIQLFHKK-NH2 | 44 | 
PEPTIDE1{V.H.V.H.I.S.K.S.K.V.G.W.L.I.Q.L.F.H.K.K.I.E.[am]}$$$$V2.0 | 18 | 
H-KSKVGLLIQLFHKK-NH2 | 33 | 
H-KSKVGWLIQLFHKA-NH2 | 70 | 
H-KSKVGWLILLFHKKKSKVGWLILLFHKK-NH2 | 32 | 
H-KSKVGWLIQLFLKK-NH2 | 63 | 
H-KSKVGWLINLFHKK-NH2 | 68 | 
H-KSKVG[2Nal]LIQLFHKK-NH2 (SMILES CC[C@H](C)[C@H](NC(=O)[C@H](CC(C)C)NC(=O)[C@H](Cc1ccc2ccccc2c1)NC(=O)CNC(=O)[C@@H](NC(=O)[C@H](CCCCN)NC(=O)[C@H](CO)NC(=O)[C@@H](N)CCCCN)C(C)C)C(=O)N[C@@H](CCC(N)=O)C(=O)N[C@@H](CC(C)C)C(=O)N[C@@H](Cc1ccccc1)C(=O)N[C@@H](Cc1c[nH]cn1)C(=O)N[C@@H](CCCCN)C(=O)N[C@@H](CCCCN)C(N)=O) | 80 | 
H-ASKVGWLIQLFHKK-NH2 | 68 | 
H-WLIQLK-NH2 | 66 | 
H-KSKVGWLIQLFHKF-NH2 | 60 | 
H-KSKVGWLIQLFHAK-NH2 | 53 | 
H-KK[Phe(4-NH2)]LIQLKK-NH2 (SMILES CC[C@H](C)[C@H](NC(=O)[C@H](CC(C)C)NC(=O)[C@H](Cc1ccc(N)cc1)NC(=O)[C@H](CCCCN)NC(=O)[C@@H](N)CCCCN)C(=O)N[C@@H](CCC(N)=O)C(=O)N[C@@H](CC(C)C)C(=O)N[C@@H](CCCCN)C(=O)N[C@@H](CCCCN)C(N)=O) | 90 | 98
Ac-PWLIQLFHKK-OH | 72 | >99
H-QLFHKK-NH2 | 73 | 
H-KSKVKWLIKLFHKK-NH2 | 61 | 
H-KSKVGWLIQ[1Nal]FHK[1Nal]-NH2 (SMILES CC[C@H](C)[C@H](NC(=O)[C@H](CC(C)C)NC(=O)[C@H](Cc1c[nH]c2ccccc12)NC(=O)CNC(=O)[C@@H](NC(=O)[C@H](CCCCN)NC(=O)[C@H](CO)NC(=O)[C@@H](N)CCCCN)C(C)C)C(=O)N[C@@H](CCC(N)=O)C(=O)N[C@@H](Cc1cccc2ccccc12)C(=O)N[C@@H](Cc1ccccc1)C(=O)N[C@@H](Cc1c[nH]cn1)C(=O)N[C@@H](CCCCN)C(=O)N[C@@H](Cc1cccc2ccccc12)C(N)=O) | 54 | 
H-KSKVGWLISLFHKK-NH2 | 34 | 

Substance | crude HPLC purity [%] | final HPLC purity [%]
S - K - 153-157 - K - K, A @ 154 (L) (SKWAIQLKK) |  | 98
H-KSKVG[Abu]LIQLFHKK-NH2 (SMILES CC[C@H](NC(=O)CNC(=O)[C@@H](NC(=O)[C@H](CCCCN)NC(=O)[C@H](CO)NC(=O)[C@@H](N)CCCCN)C(C)C)C(=O)N[C@@H](CC(C)C)C(=O)N[C@H](C(=O)N[C@@H](CCC(N)=O)C(=O)N[C@@H](CC(C)C)C(=O)N[C@@H](Cc1ccccc1)C(=O)N[C@@H](Cc1c[nH]cn1)C(=O)N[C@@H](CCCCN)C(=O)N[C@@H](CCCCN)C(N)=O)[C@@H](C)CC) | 44 | 94
H-KSKVGWLIFLFHKK-NH2 | 31 | 
H-KSKVGWLIKLFHKK-NH2 | 50 | 
H-KSKVGWAIQLFHKK-NH2 | 51 | 
H-KSKVG[Aib]LIQLFHKK-NH2 (SMILES CC[C@H](C)[C@H](NC(=O)[C@H](CC(C)C)NC(=O)C(C)(C)NC(=O)CNC(=O)[C@@H](NC(=O)[C@H](CCCCN)NC(=O)[C@H](CO)NC(=O)[C@@H](N)CCCCN)C(C)C)C(=O)N[C@@H](CCC(N)=O)C(=O)N[C@@H](CC(C)C)C(=O)N[C@@H](Cc1ccccc1)C(=O)N[C@@H](Cc1c[nH]cn1)C(=O)N[C@@H](CCCCN)C(=O)N[C@@H](CCCCN)C(N)=O) | 44 | 
H-GWLIQLFHKKIESALRNKMNS-NH2 | 28 | 
H-KSKVGWLILLFHKK-NH2 | 51 | 
H-KSKVGWLIFLFHKKKSKVGWLIQLFHKK-NH2 | 59 | 
H-KSKVG[dV]LIQLFHKK-NH2 (SMILES CC[C@H](C)[C@H](NC(=O)[C@H](CC(C)C)NC(=O)[C@H](NC(=O)CNC(=O)[C@@H](NC(=O)[C@H](CCCCN)NC(=O)[C@H](CO)NC(=O)[C@@H](N)CCCCN)C(C)C)C(C)C)C(=O)N[C@@H](CCC(N)=O)C(=O)N[C@@H](CC(C)C)C(=O)N[C@@H](Cc1ccccc1)C(=O)N[C@@H](Cc1c[nH]cn1)C(=O)N[C@@H](CCCCN)C(=O)N[C@@H](CCCCN)C(N)=O) | 51 | 
H-KSKVGWLIQFFHKK-NH2 | 46 | 
H-KSKVGWLIQLFHK[1Nal]-NH2 (SMILES CC[C@H](C)[C@H](NC(=O)[C@H](CC(C)C)NC(=O)[C@H](Cc1c[nH]c2ccccc12)NC(=O)CNC(=O)[C@@H](NC(=O)[C@H](CCCCN)NC(=O)[C@H](CO)NC(=O)[C@@H](N)CCCCN)C(C)C)C(=O)N[C@@H](CCC(N)=O)C(=O)N[C@@H](CC(C)C)C(=O)N[C@@H](Cc1ccccc1)C(=O)N[C@@H](Cc1c[nH]cn1)C(=O)N[C@@H](CCCCN)C(=O)N[C@@H](Cc1cccc2ccccc12)C(N)=O) | 73 | 
H-KSKVGWLI[Phe(4-NH2)][1Nal]FHKK-NH2 (SMILES CC[C@H](C)[C@H](NC(=O)[C@H](CC(C)C)NC(=O)[C@H](Cc1c[nH]c2ccccc12)NC(=O)CNC(=O)[C@@H](NC(=O)[C@H](CCCCN)NC(=O)[C@H](CO)NC(=O)[C@@H](N)CCCCN)C(C)C)C(=O)N[C@@H](Cc1ccc(N)cc1)C(=O)N[C@@H](Cc1cccc2ccccc12)C(=O)N[C@@H](Cc1ccccc1)C(=O)N[C@@H](Cc1c[nH]cn1)C(=O)N[C@@H](CCCCN)C(=O)N[C@@H](CCCCN)C(N)=O) | 30 | 
H-KSKVG[βAla]LIQLFHKK-NH2 (SMILES CC[C@H](C)[C@H](NC(=O)[C@H](CC(C)C)NC(=O)CCNC(=O)CNC(=O)[C@@H](NC(=O)[C@H](CCCCN)NC(=O)[C@H](CO)NC(=O)[C@@H](N)CCCCN)C(C)C)C(=O)N[C@@H](CCC(N)=O)C(=O)N[C@@H](CC(C)C)C(=O)N[C@@H](Cc1ccccc1)C(=O)N[C@@H](Cc1c[nH]cn1)C(=O)N[C@@H](CCCCN)C(=O)N[C@@H](CCCCN)C(N)=O) | 68 | 
H-KSKVLWLIQLFHKK-NH2 | 74 | 
H-KKWLIQL-NH2 | 66 | 
H-KSKVG[d1Nal]LIQLFHKK-NH2 (SMILES CC[C@H](C)[C@H](NC(=O)[C@H](CC(C)C)NC(=O)[C@@H](Cc1cccc2ccccc12)NC(=O)CNC(=O)[C@@H](NC(=O)[C@H](CCCCN)NC(=O)[C@H](CO)NC(=O)[C@@H](N)CCCCN)C(C)C)C(=O)N[C@@H](CCC(N)=O)C(=O)N[C@@H](CC(C)C)C(=O)N[C@@H](Cc1ccccc1)C(=O)N[C@@H](Cc1c[nH]cn1)C(=O)N[C@@H](CCCCN)C(=O)N[C@@H](CCCCN)C(N)=O) | 28 | 
H-KSKVGWLIQ[1Nal]FHKK-NH2 (SMILES CC[C@H](C)[C@H](NC(=O)[C@H](CC(C)C)NC(=O)[C@H](Cc1c[nH]c2ccccc12)NC(=O)CNC(=O)[C@@H](NC(=O)[C@H](CCCCN)NC(=O)[C@H](CO)NC(=O)[C@@H](N)CCCCN)C(C)C)C(=O)N[C@@H](CCC(N)=O)C(=O)N[C@@H](Cc1cccc2ccccc12)C(=O)N[C@@H](Cc1ccccc1)C(=O)N[C@@H](Cc1c[nH]cn1)C(=O)N[C@@H](CCCCN)C(=O)N[C@@H](CCCCN)C(N)=O) | 65 | 
H-WLIQL-NH2 | 63 | 
H-KSKVKVAIQLFHKK-NH2 | 30 | 
H-KSKVG[Sar]LIQLFHKK-NH2 (SMILES CC[C@H](C)[C@H](NC(=O)[C@H](CC(C)C)NC(=O)CN(C)C(=O)CNC(=O)[C@@H](NC(=O)[C@H](CCCCN)NC(=O)[C@H](CO)NC(=O)[C@@H](N)CCCCN)C(C)C)C(=O)N[C@@H](CCC(N)=O)C(=O)N[C@@H](CC(C)C)C(=O)N[C@@H](Cc1ccccc1)C(=O)N[C@@H](Cc1c[nH]cn1)C(=O)N[C@@H](CCCCN)C(=O)N[C@@H](CCCCN)C(N)=O) | 88 | 
H-KSKVKFLIQLFHKK-NH2 | 61 | 
H-KSKVGWLIQLFHKKKSKVGWLIFLFHKK-NH2 | 40 | 
H-KSKVG[d2Nal]LILLWHKK-NH2 (SMILES CC[C@H](C)[C@H](NC(=O)[C@H](CC(C)C)NC(=O)[C@@H](Cc1ccc2ccccc2c1)NC(=O)CNC(=O)[C@@H](NC(=O)[C@H](CCCCN)NC(=O)[C@H](CO)NC(=O)[C@@H](N)CCCCN)C(C)C)C(=O)N[C@@H](CC(C)C)C(=O)N[C@@H](CC(C)C)C(=O)N[C@@H](Cc1c[nH]c2ccccc12)C(=O)N[C@@H](Cc1c[nH]cn1)C(=O)N[C@@H](CCCCN)C(=O)N[C@@H](CCCCN)C(N)=O) | 43 | 
H-KSKAGWLIQLFHKK-NH2 | 51 | 
